Measurements: article PMC12785802
Changes are numbered by the printed parent chain. Names and notes keep the numbering of the source. These are yes or no findings as the source states them, for the method shown. Binding seen in cells or lysates may run through a third protein. Some binding calls cover weakened binding; strength is not graded here.

Amino acid sequences for entries named in this document (tags omitted).
UniProt P23769: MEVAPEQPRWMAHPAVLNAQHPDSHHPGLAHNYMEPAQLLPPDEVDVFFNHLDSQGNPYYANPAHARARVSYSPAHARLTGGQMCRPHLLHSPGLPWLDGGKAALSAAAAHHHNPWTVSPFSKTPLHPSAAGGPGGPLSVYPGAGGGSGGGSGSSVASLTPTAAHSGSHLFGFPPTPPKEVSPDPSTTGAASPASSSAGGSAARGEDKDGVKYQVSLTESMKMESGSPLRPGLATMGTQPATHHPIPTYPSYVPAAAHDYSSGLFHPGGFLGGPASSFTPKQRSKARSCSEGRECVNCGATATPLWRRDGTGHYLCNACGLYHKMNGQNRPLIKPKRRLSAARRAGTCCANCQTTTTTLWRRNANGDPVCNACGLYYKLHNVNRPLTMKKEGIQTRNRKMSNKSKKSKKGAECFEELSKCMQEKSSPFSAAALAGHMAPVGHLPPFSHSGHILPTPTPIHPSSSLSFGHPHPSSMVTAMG

B1: wild-type human POU1F1 (protein, UniProt P28069 1-291)
chain: MSCQAFTSADTFIPLNSDASATLPLIMHHSAAECLPVSNHATNVMSTATGLHYSVPSCHYGNQPSTYGVMAGSLTPCLYKFPDHTLSHGFPPIHQPLLAEDPTAADFKQELRRKSKLVEEPIDMDSPEIRELEKFANEFKVRRIKLGYTQTNVGEALAAVHGSEFSQTTICRFENLQLSFKNACKLKAILSKWLEEAEQVGALYNEKVGANERKRKRRTTISIAAKDALERHFGEQNKPSSQEIMRMAEELNLEKEVVRVWFCNRRQREKRVKTSLNQSLFSISKEHLECR
modifications: 35S-methionine-labeled
B2: human POU1F1 K216E mutant (protein, UniProt P28069 1-291)
chain: B1 chain with K216E
modifications: 35S-methionine-labeled
B3: human POU1F1 R172Q mutant (protein, UniProt P28069 1-291)
chain: B1 chain with R172Q
modifications: 35S-methionine-labeled
B4: human POU1F1 E230K mutant (protein, UniProt P28069 1-291)
chain: B1 chain with E230K
modifications: 35S-methionine-labeled

Target: GST-GATA2 fusion protein (full-length GATA2 fused to GST) (human) (UniProt P23769)
Assay: pull-down; GST-GATA2 (or GST) on glutathione Sepharose 4B incubated with 35S-methionine-labeled in vitro translated POU1F1s; 150 mM NaCl, 20 mM Tris-HCl (pH 7.5), 1% Triton X-100, 1 mM dithiothreitol; 3 h at 4 °C, washed three times; SDS-PAGE and autoradiography; only the target purified

Binder | binding
B1 | binds
B2 | binds
B3 | binds
B4 | binds
